Measured values: paper PMC4111571 (Pharmaceutical research, 2012)

Test: Caco-2 cell monolayer bidirectional transport study
Type: in vitro ADME
Settings: human, Caco-2, pH 7.4

- Papp A→B at 2 h, 100 µM: 3.1 ± 0.01 ×10⁻⁶ cm/s
- Papp B→A at 2 h, 100 µM: 1.9 ± 0.01 ×10⁻⁶ cm/s
- efflux ratio at 2 h, 100 µM: 0.61
Compound: CC(C)NCC(O)COc1ccc(CC(N)=O)cc1 (stereo not drawn) [Atenolol]
